Measurements published in the supplement of paper PMC12819154, “High-throughput peptide-centric local stability assay extends protein–ligand identification to membrane proteins, tissues and bacteria” (Nature Structural & Molecular Biology, 2025).
This is one part of the list. Small differences around the control level are noise.

Sequences of proteins named here, by UniProt entry; tags and fusion partners are left off. A change or cut given only in a name is not applied to a line headed by its entry.
UniProt Q61884: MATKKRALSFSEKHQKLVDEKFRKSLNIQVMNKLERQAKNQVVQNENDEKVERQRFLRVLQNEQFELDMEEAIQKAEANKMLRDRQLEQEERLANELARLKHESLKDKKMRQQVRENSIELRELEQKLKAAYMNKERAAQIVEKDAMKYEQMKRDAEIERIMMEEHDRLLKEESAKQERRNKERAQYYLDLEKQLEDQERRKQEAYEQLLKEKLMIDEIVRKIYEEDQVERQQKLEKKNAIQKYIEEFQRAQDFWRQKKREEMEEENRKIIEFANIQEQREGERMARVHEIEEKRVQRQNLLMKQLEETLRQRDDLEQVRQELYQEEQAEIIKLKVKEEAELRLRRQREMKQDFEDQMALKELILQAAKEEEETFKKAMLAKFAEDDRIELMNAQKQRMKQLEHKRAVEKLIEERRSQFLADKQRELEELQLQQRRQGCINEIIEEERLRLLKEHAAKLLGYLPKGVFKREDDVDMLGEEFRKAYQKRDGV
UniProt Q62108, whole entry, looked up: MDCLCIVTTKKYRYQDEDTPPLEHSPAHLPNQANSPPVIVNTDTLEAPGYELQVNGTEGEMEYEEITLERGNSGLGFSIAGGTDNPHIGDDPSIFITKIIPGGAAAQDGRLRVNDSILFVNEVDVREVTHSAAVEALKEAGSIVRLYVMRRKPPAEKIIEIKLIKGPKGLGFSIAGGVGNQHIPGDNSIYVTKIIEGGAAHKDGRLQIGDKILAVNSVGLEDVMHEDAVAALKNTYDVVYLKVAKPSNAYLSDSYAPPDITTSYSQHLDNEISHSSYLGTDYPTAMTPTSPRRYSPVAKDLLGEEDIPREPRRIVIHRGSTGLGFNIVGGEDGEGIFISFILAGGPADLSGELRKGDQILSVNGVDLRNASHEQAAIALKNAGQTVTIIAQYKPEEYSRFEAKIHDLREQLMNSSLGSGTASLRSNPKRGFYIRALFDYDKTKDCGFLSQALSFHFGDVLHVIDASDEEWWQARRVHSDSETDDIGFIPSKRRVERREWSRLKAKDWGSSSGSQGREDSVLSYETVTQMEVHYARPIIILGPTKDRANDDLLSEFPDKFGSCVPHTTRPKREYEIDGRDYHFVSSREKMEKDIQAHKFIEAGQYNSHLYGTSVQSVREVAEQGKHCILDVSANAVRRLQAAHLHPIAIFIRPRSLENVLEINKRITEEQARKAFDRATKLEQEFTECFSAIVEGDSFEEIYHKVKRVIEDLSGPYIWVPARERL
UniProt Q62172: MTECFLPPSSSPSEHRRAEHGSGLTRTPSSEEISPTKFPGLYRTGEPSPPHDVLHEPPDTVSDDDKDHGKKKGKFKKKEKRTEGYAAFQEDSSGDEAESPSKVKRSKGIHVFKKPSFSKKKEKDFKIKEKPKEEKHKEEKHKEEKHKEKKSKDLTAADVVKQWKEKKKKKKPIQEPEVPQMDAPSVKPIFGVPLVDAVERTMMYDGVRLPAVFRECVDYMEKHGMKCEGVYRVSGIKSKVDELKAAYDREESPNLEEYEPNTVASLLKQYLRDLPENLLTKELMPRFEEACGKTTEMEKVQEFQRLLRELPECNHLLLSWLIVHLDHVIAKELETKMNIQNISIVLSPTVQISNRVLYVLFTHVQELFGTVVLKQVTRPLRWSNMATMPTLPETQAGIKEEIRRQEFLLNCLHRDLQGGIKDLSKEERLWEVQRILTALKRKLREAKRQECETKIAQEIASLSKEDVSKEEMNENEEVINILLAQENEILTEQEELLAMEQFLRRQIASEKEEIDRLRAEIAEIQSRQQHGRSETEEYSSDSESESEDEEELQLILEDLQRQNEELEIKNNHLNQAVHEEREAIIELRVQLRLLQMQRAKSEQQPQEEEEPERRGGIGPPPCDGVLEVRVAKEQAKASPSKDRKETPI
UniProt Q61749, whole entry: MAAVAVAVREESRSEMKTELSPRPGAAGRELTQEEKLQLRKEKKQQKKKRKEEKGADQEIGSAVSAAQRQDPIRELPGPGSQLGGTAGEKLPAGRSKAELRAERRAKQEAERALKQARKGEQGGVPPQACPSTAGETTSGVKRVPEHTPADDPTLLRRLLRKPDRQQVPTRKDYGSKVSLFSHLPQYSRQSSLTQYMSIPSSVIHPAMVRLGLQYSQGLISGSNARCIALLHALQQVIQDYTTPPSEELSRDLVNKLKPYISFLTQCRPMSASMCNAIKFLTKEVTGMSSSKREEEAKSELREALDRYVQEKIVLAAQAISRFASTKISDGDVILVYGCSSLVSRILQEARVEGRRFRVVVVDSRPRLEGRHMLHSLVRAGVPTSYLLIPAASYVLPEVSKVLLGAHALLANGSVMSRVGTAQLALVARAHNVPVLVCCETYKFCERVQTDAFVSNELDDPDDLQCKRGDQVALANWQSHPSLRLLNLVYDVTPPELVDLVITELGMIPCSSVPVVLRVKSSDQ
UniProt Q61599: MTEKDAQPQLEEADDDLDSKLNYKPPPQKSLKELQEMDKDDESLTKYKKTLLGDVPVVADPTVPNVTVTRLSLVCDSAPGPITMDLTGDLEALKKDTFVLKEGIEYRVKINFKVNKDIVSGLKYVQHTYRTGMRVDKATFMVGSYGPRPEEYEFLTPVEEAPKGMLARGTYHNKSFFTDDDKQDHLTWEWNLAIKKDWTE
UniProt Q61792: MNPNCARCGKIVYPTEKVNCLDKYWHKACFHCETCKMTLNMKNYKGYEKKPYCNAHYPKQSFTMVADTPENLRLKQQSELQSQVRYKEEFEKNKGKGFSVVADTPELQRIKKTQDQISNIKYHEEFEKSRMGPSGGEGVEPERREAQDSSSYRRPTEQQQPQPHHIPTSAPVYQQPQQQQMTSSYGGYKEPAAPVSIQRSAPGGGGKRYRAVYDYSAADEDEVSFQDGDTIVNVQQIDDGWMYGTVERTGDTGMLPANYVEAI
UniProt Q61462: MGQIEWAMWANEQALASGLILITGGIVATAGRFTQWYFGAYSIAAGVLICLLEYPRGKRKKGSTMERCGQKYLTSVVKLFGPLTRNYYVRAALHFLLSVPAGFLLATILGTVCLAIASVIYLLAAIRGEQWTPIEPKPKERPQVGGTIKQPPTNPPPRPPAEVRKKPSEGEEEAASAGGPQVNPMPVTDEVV
UniProt Q69ZK6: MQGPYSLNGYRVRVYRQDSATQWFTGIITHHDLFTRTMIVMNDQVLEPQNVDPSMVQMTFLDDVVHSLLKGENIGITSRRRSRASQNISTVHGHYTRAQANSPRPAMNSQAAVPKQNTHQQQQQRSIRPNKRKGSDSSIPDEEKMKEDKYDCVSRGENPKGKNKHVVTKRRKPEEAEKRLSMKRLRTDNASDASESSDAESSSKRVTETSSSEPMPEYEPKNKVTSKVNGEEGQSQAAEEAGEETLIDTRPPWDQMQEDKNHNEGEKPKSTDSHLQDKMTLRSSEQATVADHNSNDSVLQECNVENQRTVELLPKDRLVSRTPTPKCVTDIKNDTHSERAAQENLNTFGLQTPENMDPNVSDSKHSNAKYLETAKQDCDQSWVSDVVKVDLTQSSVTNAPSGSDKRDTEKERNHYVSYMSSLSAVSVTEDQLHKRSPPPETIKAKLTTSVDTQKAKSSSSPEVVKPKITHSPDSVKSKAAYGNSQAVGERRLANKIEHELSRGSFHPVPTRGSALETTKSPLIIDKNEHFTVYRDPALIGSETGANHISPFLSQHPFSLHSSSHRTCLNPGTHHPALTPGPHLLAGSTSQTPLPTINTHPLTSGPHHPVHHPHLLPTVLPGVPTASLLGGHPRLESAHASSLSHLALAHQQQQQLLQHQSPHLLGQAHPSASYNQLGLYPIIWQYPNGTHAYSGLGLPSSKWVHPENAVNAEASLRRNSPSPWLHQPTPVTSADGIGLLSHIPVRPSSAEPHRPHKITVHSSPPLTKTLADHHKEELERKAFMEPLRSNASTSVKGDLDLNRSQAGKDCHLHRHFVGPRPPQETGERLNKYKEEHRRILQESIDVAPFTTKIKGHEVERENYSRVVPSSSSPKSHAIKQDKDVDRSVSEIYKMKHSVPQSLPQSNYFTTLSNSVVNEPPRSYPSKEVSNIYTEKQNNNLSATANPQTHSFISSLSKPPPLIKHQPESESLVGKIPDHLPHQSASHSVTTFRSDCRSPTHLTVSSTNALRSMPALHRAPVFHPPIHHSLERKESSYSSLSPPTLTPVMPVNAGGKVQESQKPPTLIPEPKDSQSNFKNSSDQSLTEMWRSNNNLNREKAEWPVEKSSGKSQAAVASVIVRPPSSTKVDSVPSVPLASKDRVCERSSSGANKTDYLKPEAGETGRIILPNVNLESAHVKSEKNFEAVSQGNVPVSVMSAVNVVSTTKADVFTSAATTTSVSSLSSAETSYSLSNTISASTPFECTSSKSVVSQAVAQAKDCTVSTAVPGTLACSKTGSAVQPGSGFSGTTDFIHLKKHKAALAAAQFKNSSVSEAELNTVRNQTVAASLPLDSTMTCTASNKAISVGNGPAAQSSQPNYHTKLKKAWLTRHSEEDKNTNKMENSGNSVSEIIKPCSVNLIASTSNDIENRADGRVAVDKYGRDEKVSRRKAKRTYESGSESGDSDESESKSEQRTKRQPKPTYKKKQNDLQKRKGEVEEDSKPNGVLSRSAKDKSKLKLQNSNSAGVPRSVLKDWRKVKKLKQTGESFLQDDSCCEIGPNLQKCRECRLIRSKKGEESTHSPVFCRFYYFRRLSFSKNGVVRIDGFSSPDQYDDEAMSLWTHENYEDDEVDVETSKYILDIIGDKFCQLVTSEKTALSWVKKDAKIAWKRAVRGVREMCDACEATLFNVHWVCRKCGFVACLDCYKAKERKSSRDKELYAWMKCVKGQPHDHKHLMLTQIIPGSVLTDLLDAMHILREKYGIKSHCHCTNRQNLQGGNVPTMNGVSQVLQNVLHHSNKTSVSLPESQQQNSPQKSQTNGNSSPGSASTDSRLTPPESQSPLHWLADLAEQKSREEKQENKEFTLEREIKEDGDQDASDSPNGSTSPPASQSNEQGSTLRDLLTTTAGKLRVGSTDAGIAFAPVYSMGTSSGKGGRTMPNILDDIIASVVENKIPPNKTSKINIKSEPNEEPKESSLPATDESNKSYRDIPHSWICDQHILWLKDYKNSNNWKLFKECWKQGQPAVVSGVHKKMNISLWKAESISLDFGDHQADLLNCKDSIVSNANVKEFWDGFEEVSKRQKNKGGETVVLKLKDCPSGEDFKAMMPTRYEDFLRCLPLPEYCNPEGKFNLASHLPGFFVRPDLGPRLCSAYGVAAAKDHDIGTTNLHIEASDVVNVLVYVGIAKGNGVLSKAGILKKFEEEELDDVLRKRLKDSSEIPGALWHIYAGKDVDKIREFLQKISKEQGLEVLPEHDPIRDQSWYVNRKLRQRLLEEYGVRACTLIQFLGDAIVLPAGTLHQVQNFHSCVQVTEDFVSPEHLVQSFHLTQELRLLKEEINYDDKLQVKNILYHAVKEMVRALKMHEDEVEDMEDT
UniProt Q61474, whole entry: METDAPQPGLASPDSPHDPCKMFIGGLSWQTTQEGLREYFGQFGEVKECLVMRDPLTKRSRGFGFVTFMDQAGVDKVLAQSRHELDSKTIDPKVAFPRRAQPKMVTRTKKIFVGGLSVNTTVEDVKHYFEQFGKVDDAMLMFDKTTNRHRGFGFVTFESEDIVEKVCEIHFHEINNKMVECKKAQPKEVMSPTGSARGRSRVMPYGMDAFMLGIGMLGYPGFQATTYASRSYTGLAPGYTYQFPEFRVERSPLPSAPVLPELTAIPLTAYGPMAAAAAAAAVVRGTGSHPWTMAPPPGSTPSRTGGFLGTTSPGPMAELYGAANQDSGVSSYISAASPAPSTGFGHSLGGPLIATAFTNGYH
UniProt Q61881, whole entry: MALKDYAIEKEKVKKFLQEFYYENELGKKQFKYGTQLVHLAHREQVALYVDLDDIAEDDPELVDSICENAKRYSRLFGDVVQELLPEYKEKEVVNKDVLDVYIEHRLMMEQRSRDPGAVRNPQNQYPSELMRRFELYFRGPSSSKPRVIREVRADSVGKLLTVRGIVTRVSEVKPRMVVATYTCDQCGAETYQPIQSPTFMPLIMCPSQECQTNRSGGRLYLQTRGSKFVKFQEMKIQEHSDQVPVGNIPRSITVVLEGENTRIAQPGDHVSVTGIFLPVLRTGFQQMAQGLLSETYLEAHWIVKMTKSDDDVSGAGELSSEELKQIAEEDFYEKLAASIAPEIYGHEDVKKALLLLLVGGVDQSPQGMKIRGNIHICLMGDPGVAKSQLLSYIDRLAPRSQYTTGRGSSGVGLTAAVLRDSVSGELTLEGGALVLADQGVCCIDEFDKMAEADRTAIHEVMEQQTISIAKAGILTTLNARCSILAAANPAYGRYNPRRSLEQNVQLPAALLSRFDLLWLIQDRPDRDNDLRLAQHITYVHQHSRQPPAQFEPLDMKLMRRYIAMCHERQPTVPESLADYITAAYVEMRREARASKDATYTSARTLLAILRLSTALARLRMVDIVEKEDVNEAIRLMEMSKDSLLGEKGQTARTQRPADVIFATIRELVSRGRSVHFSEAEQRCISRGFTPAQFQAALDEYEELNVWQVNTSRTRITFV

Compound: CN[C@@H]1C[C@H]2O[C@@](C)([C@@H]1OC)n1c3ccccc3c3c4c(c5c6ccccc6n2c5c31)C(=O)NC4 [staurosporine]
Assay: log2 fold change of tryptic peptide abundance, ligand vs vehicle (limited proteolysis) (log2 ratio); higher = more trypsin-susceptible (destabilized)
Conditions: ligand concentration: 20 uM; sample: mouse liver crude lysate; replicate design: treated separately

Row | Target | log2 fold change
1 | UniProt Q62383 (peptide sequence: EKPTFIPYFICACK, peptide start residue: 1453) | 0.327
2 | UniProt Q62000 (peptide sequence: DFADMPNLR, peptide start residue: 138) | -0.297
3 | UniProt Q64176 (peptide sequence: LDQMTAMSLLKK, peptide start residue: 372) | -0.675
4 | UniProt Q61699 (peptide sequence: EKENLSYDLVPMK, peptide start residue: 83) | 0.282
5 | UniProt Q63829 (peptide sequence: QIDPVVLKHCHAAAATCILEAGK, peptide start residue: 53) | -0.421
6 | UniProt Q62245 (peptide sequence: MEEFIGTVR, peptide start residue: 714) | 0.253
7 | UniProt Q61771 (peptide sequence: GVIPNSFDHIFTHISR, peptide start residue: 117) | 1.23
8 | UniProt Q61884 (peptide sequence: LLKEESAK, peptide start residue: 169) | 0.192
9 | UniProt Q63ZW7 (peptide sequence: LQTGDHILK, peptide start residue: 287) | 0.352
10 | UniProt Q62101 (peptide sequence: RSVVGTPAYLAPEVLR, peptide start residue: 733) | -0.0964
11 | UniProt Q62108 (peptide sequence: ALFDYDKTK, peptide start residue: 588) | 0.00243
12 | UniProt Q62172 (peptide sequence: QIASEKEEIDR, peptide start residue: 506) | 0.277
13 | UniProt Q61549 (peptide sequence: KTDLSSHSQTSGILLSSMPSTSK, peptide start residue: 907) | -0.446
14 | UniProt Q62280 (peptide sequence: GEITPAAIQK, peptide start residue: 14) | -0.071
15 | UniProt Q68ED3 (peptide sequence: CNNNLSEEKEALGK, peptide start residue: 473) | -0.803
16 | UniProt Q66JZ4 (peptide sequence: VPPHPHPQSLSGLQMILSSDR, peptide start residue: 358) | 0.426
17 | UniProt Q61749 (peptide sequence: VVVVDSRPR, peptide start residue: 359) | -0.437
18 | UniProt Q64512 (peptide sequence: VAAFPHEAPR, peptide start residue: 1667) | -0.279
19 | UniProt Q61599 (peptide sequence: ELQEMDKDDESLTKYK, peptide start residue: 33) | -0.147
20 | UniProt Q61792 (peptide sequence: GKGFSVVADTPELQR, peptide start residue: 95) | -0.0833
21 | UniProt Q62188 (peptide sequence: QIGDNLIVPGGVK, peptide start residue: 44) | 0.395
22 | UniProt Q61462 (peptide sequence: ERPQVGGTIK, peptide start residue: 140) | 0.0227
23 | UniProt Q69ZK6 (peptide sequence: SVVSQAVAQAK, peptide start residue: 1247) | 0.566
24 | UniProt Q64735 (peptide sequence: EVGIHLNYKEDSCVR, peptide start residue: 443) | -0.263
25 | UniProt Q61474 (peptide sequence: VCEIHFHEINNK, peptide start residue: 167) | -0.133
26 | UniProt Q61827 (peptide sequence: GLTKEEVTR, peptide start residue: 43) | -0.21
27 | UniProt Q61881 (peptide sequence: YGTQLVHLAHR, peptide start residue: 33) | 0.282
28 | UniProt Q64152 (peptide sequence: KLQFSLKK, peptide start residue: 85) | 0.156
29 | UniProt Q61337 (peptide sequence: AATNSHHGGAGAMETR, peptide start residue: 92) | -0.0853
30 | UniProt Q69ZK7 (peptide sequence: YSPQEKPLKPEVR, peptide start residue: 570) | 0.442

Reformatted as tab-separated lines: entries from further up.
Row	Target	log2 fold change
16	UniProt Q66JZ4 (peptide sequence: VPPHPHPQSLSGLQMILSSDR, peptide start residue: 358)	0.426
26	UniProt Q61827 (peptide sequence: GLTKEEVTR, peptide start residue: 43)	-0.21
